PubChem BioAssay AID1671195 – Yale University | 2021

Screen: 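Regulators of LDL receptor activity judged by labelled LDL uptake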 (primary screen)
Cells: human Huh7 hepatoma cells
Reagent: siRNA pool against human genes, 18 nM
Time to read-out: about 2 to 2.5 days of knockdown, then 8 h LDL uptake
Conditions: DiI-labelled LDL at 30 µg/ml for 8 h, in lipoprotein-deficient serum medium
Read-out: 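Per-cell DiI-LDL intensity by automated imaging; well means scaled to the plate median and given as a robust z-score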
Reading the numbers: robust z-score: higher = more LDL uptake after knockdown
Rule for the call: 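a gene counts as active if at least two replicate z-scores exceed ±2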
The whole screen tested about 22,000 reagents; shown is an unselected part. Over the whole deposit, about 1,510 (6.9%) are marked active. 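Active includes knockdowns raising or lowering LDL uptake; positive z-scores mean more uptake, negative mean less.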 Entries without a mark were called inactive.

| gene | PubChem SID | robust z-score, replicate 1 | robust z-score, replicate 2 | robust z-score, replicate 3 |
| --- | --- | --- | --- | --- |
| MS4A14 (membrane spanning 4-domains A14) | SID442897868 | -0.489 | -0.383 | -0.43 |
| VIPR1 (vasoactive intestinal peptide receptor 1) | SID442901350 | -0.691 | -0.963 | -1.01 |
| EHMT1 (euchromatic histone lysine methyltransferase 1) | SID442883439 | 1.58 (active) | 4.75 | 2.37 |
| REP15 (RAB15 effector protein) | SID442897223 | -0.515 | -0.224 | -0.342 |
| LOC388338 (retired record) | SID442904645 | -1.67 | -1.85 | -1.81 |
| PEX6 (peroxisomal biogenesis factor 6) | SID442897958 | -0.886 | -0.171 | -0.275 |
| ARL3 (ARF like GTPase 3) | SID442886699 | 1.82 | 0.366 | 1.06 |
| PKNOX2 (PBX/knotted 1 homeobox 2) | SID442886757 | 0.831 | 1.4 | 0.98 |
| CRABP1 (cellular retinoic acid binding protein 1) | SID442897130 | -0.223 | -0.897 | 0.0691 |
| CCDC18 (coiled-coil domain containing 18) | SID442888213 | 0.898 | 0.773 | 0.624 |
| MEP1A (meprin A subunit alpha) | SID442896357 | -0.326 | -0.449 | -0.0171 |
| YIPF3 (Yip1 domain family member 3) | SID442890385 | 0.754 | 0.957 | -0.44 |
| ATP6V1G1 (ATPase H+ transporting V1 subunit G1) | SID442897594 | -0.293 | -0.321 | -0.594 |
| COL10A1 (collagen type X alpha 1 chain) | SID442889749 | 0.673 | 0.588 | 0.281 |
| UBAC2 (UBA domain containing 2) | SID442890973 | 0.932 | -0.153 | 0.263 |
| C1QTNF2 (C1q and TNF related 2) | SID442891790 | 0.863 | 0.0724 | -0.201 |
| UBE2G2 (ubiquitin conjugating enzyme E2 G2) | SID442887628 | 1.61 | 0.0302 | 0.978 |
| SMC2 (structural maintenance of chromosomes 2) | SID442899390 | -0.304 | -0.975 | -0.562 |
| RPL26 (ribosomal protein L26) | SID442890818 | 0.429 | -0.017 | 0.685 |
| PRUNE2 (prune homolog 2 with BCH domain) | SID442891722 | -0.323 | 0.887 | 0.19 |
| PRUNE2 (prune homolog 2 with BCH domain) | SID442898148 | -0.166 | -1.13 | -0.0981 |
| SKIC2 (SKI2 subunit of superkiller complex) | SID442897980 | -0.191 | -0.532 | -0.617 |
| PITPNC1 (phosphatidylinositol transfer protein cytoplasmic 1) | SID442902252 | -0.445 | -1.75 | -0.917 |
| EIF4EBP2 | SID442885423 | 0.986 | 2.75 | 0.818 |
| PLBD2 (phospholipase B domain containing 2) | SID442897991 | -0.68 | -1.08 | 0.42 |
| CSTA (cystatin A) | SID442896068 | -0.0156 | -0.0974 | -0.591 |
| ZNF763 (zinc finger protein 763) | SID442890516 | 0.365 | 0.494 | 0.361 |
| HSPB9 (heat shock protein family B (small) member 9) | SID442884983 | 1.25 | 1.88 | 2.12 |
| KNG1 (kininogen 1) | SID442891713 | 0.363 | 0.0629 | 0.331 |
| OVCH1 (ovochymase 1) | SID442886291 | 0.547 | 1.73 | 1.33 |
| TMPRSS11E (transmembrane serine protease 11E) | SID442900428 | -0.445 | -1 | -0.828 |
| LOC388689 (retired record) | SID442885973 | 1.97 | 1.07 | 0.874 |
| RIN1 (Ras and Rab interactor 1) | SID442884282 | -1.91 (active) | -1.15 | -2.29 |
| KRABD5P1 (KRABD5 pseudogene 1) | SID442900175 | -0.751 | -0.846 | -0.575 |
| CD46 (CD46 molecule) | SID442894698 | -0.22 | 0.0533 | -0.106 |
| CBFB (core-binding factor subunit beta) | SID442902503 | -1.22 | -1.17 | -0.891 |
| LDHB (lactate dehydrogenase B) | SID442903406 | -1.17 | -1.18 | -1.52 |

Called active, among the entries above:
| gene | PubChem SID | robust z-score, replicate 1 | robust z-score, replicate 2 | robust z-score, replicate 3 |
| --- | --- | --- | --- | --- |
| EHMT1 (euchromatic histone lysine methyltransferase 1) | SID442883439 | 1.58 (active) | 4.75 | 2.37 |
| RIN1 (Ras and Rab interactor 1) | SID442884282 | -1.91 (active) | -1.15 | -2.29 |

Additional records follow:
| gene | PubChem SID | robust z-score, replicate 1 | robust z-score, replicate 2 | robust z-score, replicate 3 |
| --- | --- | --- | --- | --- |
| IFNA2 (interferon alpha 2) | SID442892556 | 0.114 | -0.164 | 0.505 |
| ARRDC1 (arrestin domain containing 1) | SID442886183 | 2.38 | 0.603 | 0.733 |
| SAMD1 (sterile alpha motif domain containing 1) | SID442888866 | 0.136 | 1.04 | 0.773 |
| CBLL2 (Cbl proto-oncogene like 2) | SID442891095 | 0.607 | -0.331 | 0.72 |
| NCOA5 (nuclear receptor coactivator 5) | SID442898774 | -0.473 | -0.584 | -0.553 |
| GABRP (gamma-aminobutyric acid type A receptor subunit pi) | SID442894889 | -0.0499 | -0.47 | 0.19 |
| DMTF1 (cyclin D binding myb like transcription factor 1) | SID442892707 | 0.351 | -0.251 | 0.297 |
| CENPL (centromere protein L) | SID442893677 | -0.346 | 0.405 | 0.00838 |
| LOC441647 (retired record) | SID442891482 | 0.127 | 0.494 | 0.221 |
| LOC441604 (retired record) | SID442887291 | 1.42 | 0.802 | 0.618 |
| NGF (nerve growth factor) | SID442894239 | -0.0815 | -0.251 | 0.208 |
| NDUFAF5 (NADH:ubiquinone oxidoreductase complex assembly factor 5) | SID442894100 | -0.134 | 0.364 | -0.308 |
| ANKRD42 (ankyrin repeat domain 42) | SID442902637 | -1.02 | -1.04 | -1.3 |
| AP1B1 (adaptor related protein complex 1 subunit beta 1) | SID442894671 | -0.0707 | 0.114 | -0.31 |
| NOP2 (NOP2 nucleolar protein) | SID442900047 | -0.85 | -0.275 | -0.988 |
| HNRNPA1P16 (heterogeneous nuclear ribonucleoprotein A1 pseudogene 16) | SID442895382 | -0.141 | 0.00269 | -0.354 |
| DSCR4 (Down syndrome critical region 4) | SID442900803 | -1.85 | -1.37 | 0.783 |
| TGFA (transforming growth factor alpha) | SID442893897 | 0.118 | -0.0467 | -0.0759 |
| LOC400212 | SID442888587 | 0.875 | 0.811 | 0.398 |
| AP1S1 (adaptor related protein complex 1 subunit sigma 1) | SID442898439 | -0.539 | -0.512 | -0.445 |
| ZCWPW2 (zinc finger CW-type and PWWP domain containing 2) | SID442897197 | -0.323 | -0.13 | -0.619 |
| CMKLR2 (chemerin chemokine-like receptor 2) | SID442883428 | 4 (active) | 1.9 | 2.87 |
| LINC00474 (long independently transcribed non-coding RNA 474) | SID442900885 | -0.519 | -1.16 | -0.779 |
| SLC10A7 | SID442897998 | -0.438 | -0.319 | -0.592 |
| ENAM (enamelin) | SID442897377 | -1.43 | 0.269 | 0.0193 |
| CLIC2 (CLIC family member 2) | SID442895254 | -0.284 | -0.318 | 0.149 |
| PPP1R1C (protein phosphatase 1 regulatory inhibitor subunit 1C) | SID442883382 | 2.72 (active) | 3.07 | 3.42 |
| RNF19B (ring finger protein 19B) | SID442887376 | 1.69 | 0.959 | 0.125 |
| CSNK1G1 (casein kinase 1 gamma 1) | SID442895400 | 0.363 | -0.97 | 0.11 |
| ARL13A (ARF like GTPase 13A) | SID442896224 | -0.588 | -0.2 | 0.0364 |
| SPAM1 (sperm adhesion molecule 1) | SID442891569 | 0.534 | -0.0398 | 0.316 |
